Experimental data reported in patent publication US20190070214A1 (priority 2016, published 2019).
Some of these results come from one statement about several compounds together.

Assay: TNBS-induced colitis, histopathology of colon
Conditions: day 5; prednisolone; p=0.011 vs vehicle; scale 0-4

With `C[C@]12C=CC(=O)C=C1CC[C@@H]1[C@@H]2[C@@H](O)C[C@@]2(C)[C@H]1CC[C@]2(O)C(=O)CO` [Prednisolone] the average inflammation score was “under 1”.
